According to US20070155782A1, “Nk-1 receptor antagonists anesthesia recovery” (priority 2004, published 2007):
“And” between values parts separate entries of the source, which are not always exact repeats. Equal values may be shown once.

How the values were obtained:
geriatric beagles = assay: Experiment B: recovery from general anesthesia in beagle dogs, 0.5 mg/kg compound of Formula Ia; type: in vivo
Protocol: (§1) The patients utilized in the study were maintained in standard facilities with appropriate heating and ventilation. All dogs were placed under general anesthesia. The duration of anesthesia, time to extubation and time to sternal recumbency were recorded. Also noted were behaviors indicative of dysphoria such as vocalization and purposeless movement. A visual analog scale (“VAS”) was used to score the “quality” of the entire recovery period.
(§2) As used herein, the term “duration of anesthesia” is the time in minutes elapsed between intubation and cessation of anesthetic gases.
(§3) As used herein, the term “time to extubation” is the time in minutes elapsed between cessation of anesthetic gases and the need for removal of the endotracheal tube due to spontaneous swallowing. […]
(§4) Statistical Analysis. […] Duration of anesthesia, time to extubation and time to sternal recumbency data were analyzed using a paired t-test for means in Excel. Recovery VAS data were analyzed using SAS Statistical Software.
Fifteen experimental geriatric beagles, weighing 9-16 kilograms and undergoing anesthesia for dental prophylaxis, were used in this study. […] The duration of anesthesia, time to extubation and time to sternal recumbency were recorded. […]
The patients were monitored continuously during the anesthetic and recovery periods.

mature mongrel dogs = assay: Experiment A: anesthetic recovery in dogs, 1.0 mg/kg compound of Formula Ia vs saline control; type: in vivo
Protocol: as §1, §2, §3, §4
Experimental mature mongrel dogs, both male and female, weighing about 16-26 kilograms, were subcutaneously administered 1.0 mg/kg compound of Formula Ia one hour prior to preanesthetic administration. […] The duration of anesthesia, time to extubation and time to sternal recumbency were recorded. The patients were monitored continuously during the anesthetic and recovery periods. […]

COc1ccc(C(C)(C)C)cc1CN[C@H]1C2CCN(CC2)[C@H]1C(c1ccccc1)c1ccccc1 [Compound of Formula Ia, (2S,3S)-2-benzhydryl-N-(5-tert-butyl-2-methoxybenzyl)quinuclidin-3-amine]
Duration of anesthesia, experimental vs control group (geriatric beagles; 0.5 mg/kg SC): no statistical difference | Duration of Anesthesia Mean ± SD (geriatric beagles; 0.5 mg/kg SC at time of pre-anesthetic medication, beagle dogs): 73.43 ± 17.97 min | Duration of Anesthesia (mature mongrel dogs; 1 mg/kg SC one hour prior to preanesthetic, individual dogs): 30 min (10×) and 29 min and 34 min | Duration of Anesthesia (mature mongrel dogs; 1 mg/kg SC, Mean ± SD of 12 dogs): 30 ± 1 min
